These are yes or no findings as the source states them, for the method shown. In cells and extracts the contact can be indirect. Some binding calls cover weakened binding; strength is not graded here.
Columns and labels:
[1] = target: Tet2, endogenous in mouse cortex (mouse (endogenous in cortex)) (UniProt Q4JK59); assay: co-IP; mouse cortex lysates; anti-Tet2 or anti-Tet3 antibody or control IgG pre-coupled to protein A/G magnetic beads, 6-12 h at 4°C; western blot
[2] = target: Tet3, endogenous in mouse cortex (mouse (endogenous in cortex)) (UniProt Q8BG87); assay: as above

Chains of the proteins cited; added tags and fusions are not shown.
UniProt Q4JK59: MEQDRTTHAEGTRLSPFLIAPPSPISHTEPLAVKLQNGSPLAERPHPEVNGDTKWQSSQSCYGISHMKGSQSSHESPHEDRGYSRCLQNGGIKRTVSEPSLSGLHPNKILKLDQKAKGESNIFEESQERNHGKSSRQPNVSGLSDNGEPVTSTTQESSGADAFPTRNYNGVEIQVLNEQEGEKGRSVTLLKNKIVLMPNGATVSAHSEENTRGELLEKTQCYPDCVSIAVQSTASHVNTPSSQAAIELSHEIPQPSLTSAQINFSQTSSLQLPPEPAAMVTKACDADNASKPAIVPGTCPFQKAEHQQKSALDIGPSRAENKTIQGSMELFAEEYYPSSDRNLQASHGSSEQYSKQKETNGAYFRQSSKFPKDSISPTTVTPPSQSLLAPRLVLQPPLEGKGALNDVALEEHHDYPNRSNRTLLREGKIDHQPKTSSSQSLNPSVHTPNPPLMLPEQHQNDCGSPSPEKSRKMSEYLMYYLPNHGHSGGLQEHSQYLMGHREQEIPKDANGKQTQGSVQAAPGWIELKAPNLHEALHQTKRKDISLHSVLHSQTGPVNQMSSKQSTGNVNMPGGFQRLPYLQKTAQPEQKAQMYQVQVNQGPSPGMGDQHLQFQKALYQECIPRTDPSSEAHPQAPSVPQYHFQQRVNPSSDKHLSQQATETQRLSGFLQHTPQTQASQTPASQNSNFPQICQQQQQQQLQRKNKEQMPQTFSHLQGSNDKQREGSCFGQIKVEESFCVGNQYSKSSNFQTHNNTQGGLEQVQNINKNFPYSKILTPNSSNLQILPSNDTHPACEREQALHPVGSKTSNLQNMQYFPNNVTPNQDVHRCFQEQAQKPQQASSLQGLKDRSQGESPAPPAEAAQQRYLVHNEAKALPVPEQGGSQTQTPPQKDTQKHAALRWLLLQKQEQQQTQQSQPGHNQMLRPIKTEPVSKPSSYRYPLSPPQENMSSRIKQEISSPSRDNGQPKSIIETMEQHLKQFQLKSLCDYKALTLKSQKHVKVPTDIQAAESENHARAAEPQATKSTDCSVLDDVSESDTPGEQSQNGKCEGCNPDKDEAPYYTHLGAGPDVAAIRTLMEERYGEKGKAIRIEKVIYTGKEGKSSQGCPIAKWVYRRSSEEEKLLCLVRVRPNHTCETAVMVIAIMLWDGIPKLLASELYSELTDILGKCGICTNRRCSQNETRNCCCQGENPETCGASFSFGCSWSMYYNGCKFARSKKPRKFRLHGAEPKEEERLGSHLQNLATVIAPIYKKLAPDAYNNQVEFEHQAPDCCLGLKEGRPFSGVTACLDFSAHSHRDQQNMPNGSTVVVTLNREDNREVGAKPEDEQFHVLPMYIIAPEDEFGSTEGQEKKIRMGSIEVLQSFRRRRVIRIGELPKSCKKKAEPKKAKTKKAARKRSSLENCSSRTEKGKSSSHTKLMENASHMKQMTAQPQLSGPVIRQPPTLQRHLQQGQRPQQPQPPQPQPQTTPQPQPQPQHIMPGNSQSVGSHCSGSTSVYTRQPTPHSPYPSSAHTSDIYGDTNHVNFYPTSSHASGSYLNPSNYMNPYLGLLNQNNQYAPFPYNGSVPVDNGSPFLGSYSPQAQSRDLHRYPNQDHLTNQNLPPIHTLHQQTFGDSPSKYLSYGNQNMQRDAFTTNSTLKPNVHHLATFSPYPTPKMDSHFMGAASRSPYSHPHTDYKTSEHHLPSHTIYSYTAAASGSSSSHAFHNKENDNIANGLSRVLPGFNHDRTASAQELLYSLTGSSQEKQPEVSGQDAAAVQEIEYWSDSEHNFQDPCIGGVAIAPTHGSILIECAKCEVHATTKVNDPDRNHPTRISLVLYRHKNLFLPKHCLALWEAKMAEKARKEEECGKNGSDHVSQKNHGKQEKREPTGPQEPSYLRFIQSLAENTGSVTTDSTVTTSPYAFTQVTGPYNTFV
UniProt Q8BG87: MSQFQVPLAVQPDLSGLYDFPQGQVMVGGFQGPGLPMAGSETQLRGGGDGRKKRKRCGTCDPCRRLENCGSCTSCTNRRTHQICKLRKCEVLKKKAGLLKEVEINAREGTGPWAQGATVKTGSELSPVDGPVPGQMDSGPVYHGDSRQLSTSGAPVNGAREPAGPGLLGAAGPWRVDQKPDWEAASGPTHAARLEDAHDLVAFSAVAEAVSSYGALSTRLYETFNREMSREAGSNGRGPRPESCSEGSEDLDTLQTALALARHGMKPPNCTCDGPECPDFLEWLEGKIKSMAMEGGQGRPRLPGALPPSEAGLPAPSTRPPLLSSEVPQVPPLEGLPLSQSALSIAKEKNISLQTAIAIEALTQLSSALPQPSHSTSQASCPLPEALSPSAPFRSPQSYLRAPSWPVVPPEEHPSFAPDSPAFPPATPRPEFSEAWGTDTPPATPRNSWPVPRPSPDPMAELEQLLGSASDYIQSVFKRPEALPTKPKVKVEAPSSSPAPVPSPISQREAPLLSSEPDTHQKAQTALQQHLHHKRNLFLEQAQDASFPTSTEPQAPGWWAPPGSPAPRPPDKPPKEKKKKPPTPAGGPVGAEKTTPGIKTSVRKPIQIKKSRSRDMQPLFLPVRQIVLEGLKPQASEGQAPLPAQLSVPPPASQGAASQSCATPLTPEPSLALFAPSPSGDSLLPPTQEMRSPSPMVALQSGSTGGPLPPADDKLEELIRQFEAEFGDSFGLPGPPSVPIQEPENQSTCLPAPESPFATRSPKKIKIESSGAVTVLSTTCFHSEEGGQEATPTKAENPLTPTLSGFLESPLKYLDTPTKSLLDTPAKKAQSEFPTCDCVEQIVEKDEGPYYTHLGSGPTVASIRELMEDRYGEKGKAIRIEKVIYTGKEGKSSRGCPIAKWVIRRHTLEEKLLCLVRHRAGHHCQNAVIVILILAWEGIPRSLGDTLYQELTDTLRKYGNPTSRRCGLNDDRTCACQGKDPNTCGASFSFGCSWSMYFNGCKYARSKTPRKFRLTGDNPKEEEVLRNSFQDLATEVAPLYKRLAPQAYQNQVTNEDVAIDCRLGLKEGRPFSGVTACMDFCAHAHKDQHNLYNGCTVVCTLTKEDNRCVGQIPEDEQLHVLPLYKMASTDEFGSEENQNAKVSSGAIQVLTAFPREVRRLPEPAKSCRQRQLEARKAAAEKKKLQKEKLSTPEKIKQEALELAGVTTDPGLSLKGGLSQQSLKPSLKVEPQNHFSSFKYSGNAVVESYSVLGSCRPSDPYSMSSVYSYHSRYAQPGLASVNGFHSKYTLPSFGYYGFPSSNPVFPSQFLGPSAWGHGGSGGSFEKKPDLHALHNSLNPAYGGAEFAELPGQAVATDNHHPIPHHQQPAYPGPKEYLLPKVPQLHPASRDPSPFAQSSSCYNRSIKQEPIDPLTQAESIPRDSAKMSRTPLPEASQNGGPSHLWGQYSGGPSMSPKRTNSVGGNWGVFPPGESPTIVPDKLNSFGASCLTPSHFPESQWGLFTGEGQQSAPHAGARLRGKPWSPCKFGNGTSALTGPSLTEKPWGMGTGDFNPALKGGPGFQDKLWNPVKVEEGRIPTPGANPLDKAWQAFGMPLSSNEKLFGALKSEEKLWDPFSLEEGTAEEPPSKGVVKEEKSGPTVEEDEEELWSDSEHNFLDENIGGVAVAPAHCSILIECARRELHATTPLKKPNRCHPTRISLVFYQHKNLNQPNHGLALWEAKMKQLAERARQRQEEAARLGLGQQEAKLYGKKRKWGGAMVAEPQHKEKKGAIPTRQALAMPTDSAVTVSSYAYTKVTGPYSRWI

B1: Non-POU domain-containing octamer-binding (NONO) protein, endogenous in mouse cortex (protein, UniProt Q99K48 1-473)
chain: MQSNKAFNLEKQNHTPRKHHQHHHQQHHQQQQQQQQQQPPPPIPANGQQASSQNEGLTIDLKNFRKPGEKTFTQRSRLFVGNLPPDITEEEMRKLFEKYGKAGEVFIHKDKGFGFIRLETRTLAEIAKVELDNMPLRGKQLRVRFACHSASLTVRNLPQYVSNELLEEAFSVFGQVERAVVIVDDRGRPSGKGIVEFSGKPAARKALDRCSEGSFLLTTFPRPVTVEPMDQLDDEEGLPEKLVIKNQQFHKEREQPPRFAQPGSFEYEYAMRWKALIEMEKQQQDQVDRNIKEAREKLEMEMEAARHEHQVMLMRQDLMRRQEELRRMEELHNQEVQKRKQLELRQEEERRRREEEMRRQQEEMMRRQQEGFKGTFPDAREQEIRMGQMAMGGAMGINNRGAMPPAPVPPGTPAPPGPATMMPDGTLGLTPPTTERFGQAATMEGIGAIGGTPPAFNRPAPGAEFAPNKRRRY
- binding [1]: binds
- binding [2]: binds
